From US20070264679A1, “Method for analyzing the activity of lipoxygenase using a water-soluble substrate” (Chungnam National University Industry Collaboration …, priority 2006, published 2007)
Some of these results come from one statement about several compounds together. At least one structure is not confirmed: it was looked up by name or label, or the drawing left a doubt.

Test system: potato LOX
Experiment: Oxygenation of arachidonoyl lysophospholipids by potato LOX
Format: biochemical

## CCCCC/C=C\C/C=C\C/C=C\C/C=C\CCCC(=O)OCC(O)COP(=O)(O)O (stereo not shown) [Arachidonoyl-lysoPA, 1-arachidonoyl lysophosphatidic acid]
  Vm value in the oxygenation by potato LOX, fold less than that of arachidonic acid: > 100 fold
